From the supplement of paper PMC5355238 come the findings set out here.

Where a name gives a salt, the structure may show the parent alone. This is one part of the list. Most values come without repeats; read them as rough.

This test has as its system Reh. The test can be described thus: S-phase gammaH2AX median, Z-score vs plate median (drug alone); higher = more S-phase DNA damage. The following applies: MK1775 concentration 0 nM; 10 µM; 4 h.
Turning to `CN(CCOc1ccc(CC2SC(=O)NC2=O)cc1)c1ccccn1` (centres undefined) [Rosiglitazone (Avandia)], the “S-phase gammaH2AX median (Z-score)” value was -0.0978.
For `Fc1cc(-c2cccc3ncc(-c4cnn(C5CCNCC5)c4)nc23)cc(F)c1CN1CCOCC1`, the “S-phase gammaH2AX median (Z-score)” value is -0.0112.
As for `NCCCCNCCCN` [Spermidine trihydrochloride], the figure is 0.04.
In the case of `Nc1ncn([C@H]2C[C@H](O)[C@@H](CO)O2)c(=O)n1` [Decitabine], the “S-phase gammaH2AX median (Z-score)” value was -0.0367.
Regarding `O=C(Cc1ccc(-c2ccc(OCCN3CCOCC3)cc2)cn1)NCc1ccccc1`, the “S-phase gammaH2AX median (Z-score)” value is -0.0274.
In the case of `CCOC(=O)[C@]12CC1/C(=N\O)c1ccccc1O2` (some centres undefined), the “S-phase gammaH2AX median (Z-score)” value is -0.0641.
For the compound `CCN[C@H]1C[C@H](C)S(=O)(=O)c2sc(S(N)(=O)=O)cc21` [Dorzolamide HCL], the “S-phase gammaH2AX median (Z-score)” value came out at 0.0143.
In the case of `C[N+](C)(C)CCCCCNCC12CC3CC(CC(C3)C1)C2` it was 0.0126; in that of `N[C@H](CO)C(=O)O` [D-Serine], -0.1.
As to `NC(Cc1cccc(-c2ccccc2CP(=O)(O)O)c1)C(=O)O` (stereo not drawn) [Phenylbenzene-omega-phosphono-alpha-amino acid], the “S-phase gammaH2AX median (Z-score)” value is -0.0166.
In the case of `O=S(=O)(c1cccc2cnccc12)N1CCNCC1` it was 0.113.
On to `CCOC(=O)C(C)(C)Oc1ccc(Cl)cc1` [Clofibrate], for which the “S-phase gammaH2AX median (Z-score)” value was -0.0155.
As for `c1cnc2c(c1)ccc1cccnc12` [1,10-Phenanthroline monohydrate], the figure is 10.5; as for `CC(C)NC[C@H](O)COc1ccc(CC(N)=O)cc1` [S(-)-Atenolol], -0.0951.
As for `CO[C@@]1(NC(=O)CSCC#N)C(=O)N2C(C(=O)O)=C(CSc3nnnn3C)CS[C@@H]21` [Cefmetazole sodium], the figure is 0.0913; as for `COc1ccc2[nH]c(I)c(CCNC(C)=O)c2c1` [2-Iodomelatonin], 0.0472.
In the case of `CCC(NC(C)C)C(O)c1ccc(O)c(O)c1` (centres undefined) [Isotharine mesylate] it was 0.0346.
Consider `C[C@H](NC(=O)Cc1cc(F)cc(F)c1)C(=O)N[C@H](C(=O)OC(C)(C)C)c1ccccc1`, for which the “S-phase gammaH2AX median (Z-score)” value was found to be 0.179.
For the compound `CN1CCc2cccc3c2[C@H]1Cc1ccc(O)c(O)c1-3` [Apomorphine hydrochloride hemihydrate], the “S-phase gammaH2AX median (Z-score)” value was -0.00194.
In the case of `CCCCCCCCCCCCCCCC(=O)NCCO` [Palmitoylethanolamide] it was 0.0922; in that of `CO[C@@H](C(=O)N1Cc2[nH]nc(NC(=O)c3ccc(N4CCN(C)CC4)cc3)c2C1)c1ccccc1`, -0.0553; in that of `CN1CCN(C2=Nc3cc(Cl)ccc3Nc3ccccc32)CC1` [Clozapine], 0.033.
For `O=C(O)c1ccccc1Nc1ccccc1` [N-Phenylanthranilic acid], the “S-phase gammaH2AX median (Z-score)” value is -0.0272.
In the case of `C=CC[C@H](N)C(=O)O` [L-allylglycine] it was -0.00388; in that of `Brc1ccc([C@H]2CN3CCSC3=N2)cc1` [S(-)-p-Bromotetramisole oxalate], -0.0272; in that of `N#C/C(=C\c1ccc(O)c(O)c1)C(=O)c1ccc(O)c(O)c1` [Tyrphostin AG 538], -0.0601.
Turning to `NC12CC3CC(CC(C3)C1)C2` [Amantadine hydrochloride], the “S-phase gammaH2AX median (Z-score)” value came out at 0.0641.
As for `CC1(C2CCCC2)Cc2cc(OCC(=O)O)c(Cl)c(Cl)c2C1=O` (centres undefined), the figure is 0.0252.
As for `NCC=CC(=O)O` (stereo in doubt) [cis-4-Aminocrotonic acid], the figure is 0.0233; as for `CC(=O)[C@H]1CC[C@H]2[C@@H]3CC=C4C[C@@H](OS(=O)(=O)O)CC[C@]4(C)[C@H]3CC[C@]12C` [Pregnenolone sulfate sodium], -0.35.
In the case of `COc1cc(Nc2ncc(F)c(Nc3ccc4c(n3)NC(=O)C(C)(C)O4)n2)cc(OC)c1OC` [R406(free base)], the “S-phase gammaH2AX median (Z-score)” value was 0.0545.
As to `S=C(Nc1ccccc1)Nc1nccs1` [1-Phenyl-3-(2-thiazolyl)-2-thiourea], the “S-phase gammaH2AX median (Z-score)” value was 0.0497.
In the case of `CS(=O)(=O)c1cccc(CNc2nc(Nc3ccc4c(c3)CCC(=O)N4)ncc2C(F)(F)F)c1` it was -0.00812; in that of `Cc1ccc(NC(=O)c2ccc(CN3CC[C@H](N(C)C)C3)c(C(F)(F)F)c2)cc1Nc1nccc(-c2cncnc2)n1` [Bafetinib (INNO-406)], 0.0329; in that of `COc1ccc(-c2ccc(=N)n(CCCC(=O)O)n2)cc1`, -0.0133.
As for `CSc1ccc(C(=O)c2[nH]c(=O)[nH]c2C)cc1` [Enoximone], the figure is 0.12; as for `CC(=O)NCCc1c[nH]c2ccc(O)cc12` [N-Acetyl-5-hydroxytryptamine], -0.0369; as for `O=c1ccc2ccc(O)c(O)c2o1` [Daphnetin], 0.23.
In the case of `O=C(O)CC[C@H]1CC[C@@](c2cc(F)ccc2F)(S(=O)(=O)c2ccc(Cl)cc2)CC1` it was 0.0816; in that of `CCCN(CCC)C(=O)C(CCC(=O)O)NC(=O)c1ccccc1` (centres undefined) [Proglumide], 0.0781.
Consider `CN1CCC(=C2c3ccccc3CC(=O)c3sccc32)CC1` [Ketotifen fumarate], for which the “S-phase gammaH2AX median (Z-score)” value came out at 0.0882.
In the case of `COc1ccccc1N1CCN(CC(O)COc2cccc3ccccc23)CC1` (centres undefined) [Naftopidil dihydrochloride] it was 0.156; in that of `CN1CCc2ccccc2Cc2[nH]c3ccccc3c2CC1`, 0.00473.
As for `CS(=O)(=O)CCNCc1ccc(-c2ccc3ncnc(Nc4ccc(OCc5cccc(F)c5)c(Cl)c4)c3c2)o1` [Lapatinib Ditosylate (Tykerb)], the figure is -0.039.
As for `CN(C)c1cc2c(Nc3ccc4c(cnn4Cc4ccccc4)c3)ncnc2cn1`, the figure is -0.117.
Turning to `FC(F)(F)c1cc(COC2CCCNC2c2ccccc2)cc(C(F)(F)F)c1` [L-733,060 hydrochloride], the “S-phase gammaH2AX median (Z-score)” value is -0.0899.
As for `NC(=O)C(=O)O` [Sodium Oxamate], the “S-phase gammaH2AX median (Z-score)” value worked out at 0.0922.
In the case of `COc1cc(Cc2cnc(N)nc2N)cc(OC)c1OC` [Trimethoprim] it was -0.601; in that of `CC1(COc2ccc3c(c2)ncn3-c2ccc3cccc(N4CCC(N)CC4)c3n2)COC1`, 0.0862.
In the case of `C[C@@H](Oc1cc(-n2cnc3ccc(CN4CCN(C)CC4)cc32)sc1C(N)=O)c1ccccc1C(F)(F)F` it was -0.116; in that of `NC(N)=NCc1cccc(I)c1` [m-Iodobenzylguanidine hemisulfate], 0.132.
As for `NS(=O)(=O)c1cccc2c1c([N+](=O)[O-])cc1nc(O)c(O)nc12` [NBQX disodium], the figure is 0.196.
Turning to `N#CC(=C(/N)Sc1ccccc1N)/C(C#N)=C(/N)Sc1ccccc1N`, the “S-phase gammaH2AX median (Z-score)” value worked out at 0.474.
`NC(N)=NCCNS(=O)(=O)c1cccc2cnccc12` [HA-1004 hydrochloride]: the “S-phase gammaH2AX median (Z-score)” value worked out at 0.0409.
On to `CNC(=O)[C@H]1O[C@@H](n2cnc3c(NCc4cccc(I)c4)ncnc32)[C@H](O)[C@@H]1O`, for which the “S-phase gammaH2AX median (Z-score)” value is 0.0409.
In the case of `C=C[C@H]1CN2CC[C@H]1C[C@@H]2[C@@H](O)c1ccnc2ccc(OC)cc12` [Quinidine sulfate] it was -0.0686.
In the case of `CN(C)CCC=C1c2ccccc2CCc2ccccc21` [Amitriptyline hydrochloride] it was -0.00583.
As for `Cc1[nH]c(=O)c(C#N)cc1-c1ccncc1` [Milrinone], the figure is 0.0686.
Take `CC(C)[C@H](CO)Nc1nc(Nc2cccc(Cl)c2)c2ncn(C(C)C)c2n1` [Purvalanol A]: the “S-phase gammaH2AX median (Z-score)” value is -0.577.
As to `Cn1c(=O)c2[nH]cnc2n(C)c1=O` [Aminophylline ethylenediamine], the “S-phase gammaH2AX median (Z-score)” value stood at 0.0466.
Turning to `NS(=O)(=O)c1cc2c(cc1Cl)N=CNS2(=O)=O` [Chlorothiazide], the “S-phase gammaH2AX median (Z-score)” value amounted to 0.132.
In the case of `CN[C@H](CC(C)C)C(=O)N[C@H]1C(=O)N[C@@H](CC(N)=O)C(=O)N[C@H]2C(=O)N[C@H]3C(=O)N[C@H](C(=O)N[C@H](C(=O)O)c4cc(O)cc(O)c4-c4cc3ccc4O)[C@H](O)c3ccc(c(Cl)c3)Oc3cc2cc(c3O[C@@H]2O[C@H](CO)[C@@H](O)[C@H](O)[C@H]2O[C@H]2C[C@](C)(N)[C@H](O)[C@H](C)O2)Oc2ccc(cc2Cl)[C@H]1O` [Vancomycin hydrochloride from Streptomyces orientalis] it was -0.174; in that of `Cn1c(=O)c2[nH]c(C3CCCC3)nc2n(C)c1=O` [8-Cyclopentyl-1,3-dimethylxanthine], -0.0252; in that of `CC(C)COCC(CN(Cc1ccccc1)c1ccccc1)N1CCCC1` (centres undefined) [Bepridil hydrochloride], -0.0524.
In the case of `NC(=O)c1ncn([C@@H]2O[C@H](CO)[C@@H](O)[C@H]2O)n1` [Ribavirin] it was 1.03.
In the case of `NC(=S)c1ccc[n+]([C@@H]2O[C@@H](COP(=O)([O-])OP(=O)(O)OC[C@H]3O[C@@H](n4cnc5c(N)ncnc54)C(OP(=O)(O)O)[C@H]3O)C(O)C2O)c1` (some centres undefined) [Thio-NADP sodium] it was -0.0334; in that of `NS(=O)(=O)c1cc(C(=O)O)c(NCc2ccco2)cc1Cl` [Furosemide], 0.0126.
`O=C(O)C(=O)O.[NH-]C1CCCCC1[NH-].[Pt+2]` (centres undefined) [Oxaliplatin (Eloxatin)]: the “S-phase gammaH2AX median (Z-score)” value amounted to 1.04.
`CCc1cncnc1N1CCN(Cc2nc3ccc(C(F)(F)F)cc3[nH]2)CC1`: the “S-phase gammaH2AX median (Z-score)” value turned out to be 0.0437.
On to `Nc1ccccc1NC(=O)c1ccc(CNC(=O)OCc2cccnc2)cc1` [Entinostat (MS-275, SNDX-275)], for which the “S-phase gammaH2AX median (Z-score)” value was 0.138.
In the case of `O=C1NCN(c2ccccc2)C12CCN(CCCC(c1ccc(F)cc1)c1ccc(F)cc1)CC2` [Fluspirilene] it was -0.211.
In the case of `COc1cccc(OC)c1OCCNCC1COc2ccccc2O1` (centres undefined) [WB-4101 hydrochloride] it was -0.132.
As for `N=C(N)NC(=O)c1nc(Cl)c(N)nc1N` [Amiloride hydrochloride], the figure is -0.105.
With `O=C(O)CCC(=O)N1CCC[C@H]1C(=O)O` [N-Succinyl-L-proline], the “S-phase gammaH2AX median (Z-score)” value is -0.214.
As for `O=[N+]([O-])c1cccc2c(Br)[nH]nc12` [3-Bromo-7-nitroindazole], the figure is 0.0874; as for `CN(C)CC[C@H](CSc1ccccc1)Nc1ccc(S(=O)(=O)NC(=O)c2ccc(N3CCN(Cc4ccccc4-c4ccc(Cl)cc4)CC3)cc2)cc1[N+](=O)[O-]`, 0.381.
In the case of `CC(=O)SCC[N+](C)(C)C` [Acetylthiocholine chloride] it was -0.0796; in that of `CC(C)COC(=O)OCN1C(=O)CN(CCN2CC(=O)N(COC(=O)OCC(C)C)C(=O)C2)CC1=O` [Sobuzoxane], 2.52; in that of `C[C@@H]1C(=O)NC2=Nc3cccc(Cl)c3CN21` [Quazinone], 0.102.
